Measurements reported in PubChem BioAssay AID1159584 (Peter MacCallum Cancer Centre, 2016)
Shown is a random part of about 18,000 deposited reagents. Not all columns of the deposit are shown. The record does not give: the amount of reagent, the time to read-out.

Purpose: 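Knock-downs that harm CDH1-null cells more than parental MCF10A cells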 (primary screen)
Cells: human MCF10A breast epithelial cells, parental and CDH1-null
Reagents: siRNA against human genes
Measurement: 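ATP luminescence (CellTiter-Glo) viability per line relative to mean mock wells over all plates, and the ratio of CDH1-null to parental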
Reading the numbers: CDH1-null / parental viability ratio: higher = CDH1-null cells survive relatively better than parental

| target gene | CDH1-null / parental viability ratio |
| --- | --- |
| PPIL3 | 1.17 |
| PLA2G4E | 1.06 |
| MED14 | 1.18 |
| POTEA | 1.02 |
| PLEKHO1 | 0.93 |
| MAPK15 | 1.06 |
| SLC15A1 | 0.96 |
| TNPO1 | 0.62 |
| ZNF146 | 0.99 |
| CATSPER2 | 1.21 |
| KIAA0513 | 0.82 |
| DHX34 | 0.95 |
| NUDT21 | 0.98 |
| GYS1 | 0.9 |
| SRSF10 | 1.05 |
| RBM44 | 0.62 |
| ADSS1 | 1.32 |
| TNFSF11 | 1.12 |
| ZNRF2 | 1 |
| EDN3 | 0.71 |
| IFI27L2 | 1.33 |
| ETV3 | 1 |
| MARK1 | 1.23 |
| SLC35A3 | 0.93 |
| ABCB8 | 1.22 |
| USP44 | 1.17 |
| MTCL2 | 1.14 |
| HDAC2 | 1.13 |

4 neighbouring reagents from above, for reference:
| target gene | CDH1-null / parental viability ratio |
| --- | --- |
| KIAA0513 | 0.82 |
| DHX34 | 0.95 |
| NUDT21 | 0.98 |
| GYS1 | 0.9 |
